Experimental data: PubChem BioAssay AID504793 (Drosophila RNAi Screening Center, 2011)
The deposit covers about 23,000 reagents; below is an unselected part of those that have a named target and a result. Over the whole deposit, 62 (0.27%) got an active call. 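Calls come from follow-up tests whose scores are not deposited, so confirmed genes may have low counts here; counts are not normalised per plate.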 Raw values vary from plate to plate and are shown uncorrected. Reagents against one gene are numbered here. A plus sign joins genes that one reagent is predicted to hit. No sequences are given here.

Screen: 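Whole-genome screen for parts of the DNA damage checkpoint at G2/M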 (primary screen)
System: Drosophila S2R+ cells
Reagents: long dsRNA against Drosophila genes, about 0.25 µg dsRNA per well
Time to read-out: 4 days of dsRNA, then 4 hours of drug before read-out
Conditions: doxorubicin 0.5 µM for 4 hours to cause double-strand breaks, in cells also given a low, harmless dose of dsRNA against nbs to sensitise the assay
Measurement: 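Mitotic index as the number of phospho-histone H3-positive cells in each well following doxorubicin, given as raw counts without normalisation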
Reading the numbers: mitotic cells: higher = more cells in mitosis, weaker G2 arrest
Rule for the call: 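a call needs confirmation in secondary tests, with other dsRNAs and a check of mitotic timing without damage, not just a high primary count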
Meaning of the calls: active = confirmed in follow-up tests; inactive = not confirmed

After knock-down of GstE9 (Glutathione S transferase E9) #1 the results were mitotic cells, replicate 1 = 8; inactive.
GstE9 (Glutathione S transferase E9) #2 scored mitotic cells, replicate 1 = 9; inactive.
nudE #1 scored mitotic cells, replicate 1 = 13; inactive.
nudE #2 showed mitotic cells, replicate 1 = 76; inactive.
Depletion of nudE #3 gave: mitotic cells, replicate 1 = 5; inactive.
For Arc2 (Activity-regulated cytoskeleton associated protein 2) #1 the deposit lists mitotic cells, replicate 1 = 5; inactive.
With knock-down of Arc2 (Activity-regulated cytoskeleton associated protein 2) #2, the screen gave mitotic cells, replicate 1 = 4; inactive.
Knock-down of CG1907 gave: mitotic cells, replicate 1 = 5; inactive.
After knock-down of CG12689, the screen gave mitotic cells, replicate 1 = 11; inactive.
For CG14053, the values are mitotic cells, replicate 1 = 4; inactive.
With knock-down of PH4alphaEFB (prolyl-4-hydroxylase-alpha EFB) #1, the record shows mitotic cells, replicate 1 = 8; inactive.
Against PH4alphaEFB (prolyl-4-hydroxylase-alpha EFB) #2, the entry reads mitotic cells, replicate 1 = 18; inactive.
Silencing of Zpr1 resulted in: mitotic cells, replicate 1 = 2; inactive.
CG13991 scored mitotic cells, replicate 1 = 9; inactive.
Depletion of GCC185 (GRIP and coiled-coil domain containing 185 kDa) resulted in: mitotic cells, replicate 1 = 5; inactive.
Against sisA #1, the entry reads mitotic cells, replicate 1 = 8; inactive.
sisA #2 gave mitotic cells, replicate 1 = 9; inactive.
nrv3 (nervana 3) gave mitotic cells, replicate 1 = 3; inactive.
Depletion of CG7342 resulted in: mitotic cells, replicate 1 = 1; inactive.
After knock-down of gw (gawky) #1, the record shows mitotic cells, replicate 1 = 7; inactive.
With knock-down of gw (gawky) #2 the results were mitotic cells, replicate 1 = 4; inactive.
With knock-down of gw (gawky) #3 the results were mitotic cells, replicate 1 = 2; inactive.
Depletion of Atg4b (Autophagy-related 4b) #1 resulted in: mitotic cells, replicate 1 = 6; inactive.
For Atg4b (Autophagy-related 4b) #2 the deposit lists mitotic cells, replicate 1 = 1; inactive.
With knock-down of CG30275 the results were mitotic cells, replicate 1 = 8; inactive.
Silencing of CG13995 #1 gave: mitotic cells, replicate 1 = 7; mitotic cells, replicate 2 = 24; inactive.
For CG13995 #2, the entry reads mitotic cells, replicate 1 = 5; inactive.
Silencing of CG13995 #3 gave: mitotic cells, replicate 1 = 11; inactive.
Silencing of CG13995 #4 resulted in: mitotic cells, replicate 1 = 3; inactive.
Depletion of Sec10 (Secretory 10) #1 came out at: mitotic cells, replicate 1 = 8; inactive.
Silencing of Sec10 (Secretory 10) #2 gave: mitotic cells, replicate 1 = 7; inactive.
Against CG1648 #1, the values are mitotic cells, replicate 1 = 4; inactive.
With knock-down of CG1648 #2, the screen gave mitotic cells, replicate 1 = 6; inactive.
CG30100 + CG42372 gave mitotic cells, replicate 1 = 9; inactive.
Mst27D (Male specific transcript 27D) scored mitotic cells, replicate 1 = 11; inactive.
With knock-down of CG9313 #1, the screen gave mitotic cells, replicate 1 = 9; inactive.
Knock-down of CG9313 #2 came out at: mitotic cells, replicate 1 = 7; inactive.
Silencing of Brr2 (Brr2 U5 snRNP complex subunit) gave: mitotic cells, replicate 1 = 4; inactive.
For HP1e (Heterochromatin Protein 1e), the values are mitotic cells, replicate 1 = 3; inactive.
Against Mpc1, the values are mitotic cells, replicate 1 = 6; inactive.
amd (alpha methyl dopa-resistant) #1 scored mitotic cells, replicate 1 = 6; inactive.
Depletion of amd (alpha methyl dopa-resistant) #2 resulted in: mitotic cells, replicate 1 = 6; inactive.
Against CG10918 #1 the deposit lists mitotic cells, replicate 1 = 6; inactive.
After knock-down of CG10918 #2, the screen gave mitotic cells, replicate 1 = 5; inactive.

7 entries from above, sorted by “mitotic cells, replicate 1”, ascending.
Zpr1 → mitotic cells, replicate 1 = 2; call = inactive
Arc2 (Activity-regulated cytoskeleton associated protein 2) #2 → mitotic cells, replicate 1 = 4; call = inactive
CG14053 → mitotic cells, replicate 1 = 4; call = inactive
CG1907 → mitotic cells, replicate 1 = 5; call = inactive
PH4alphaEFB (prolyl-4-hydroxylase-alpha EFB) #1 → mitotic cells, replicate 1 = 8; call = inactive
CG12689 → mitotic cells, replicate 1 = 11; call = inactive
PH4alphaEFB (prolyl-4-hydroxylase-alpha EFB) #2 → mitotic cells, replicate 1 = 18; call = inactive
